The structures appear in SMILES notation. The list shows a part of the results. These are further read-outs of the screen, such as a control signal, another cell line or another target. No call is given for them. Compounds called inactive in the main read-out are mostly missing here. Potencies come from curve fits of mixed quality, noted in brackets.

For 62 compounds, AC50 results are on record in PubChem BioAssay AID445 (National Center for Advancing Translational Sciences (NCATS), 2006).

A short description of this experiment: IkB Signaling. The following applies: ABC-DLBCL IkBa-CBG/CBR dual luciferase ratio (green luciferase fused to IkBa over red control in OCI-Ly3 lymphoma cells), 4 h. In a few lines: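 Curves were fitted separately to fusion (green), unfused (red) and ratio luminescence, then classed by r2, magnitude and activity. Cells: OCI-Ly3, 4 h compound plus doxycycline at 37C; 10 uM MG-132 defined full response.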
Setting [1] is: measured here: control luc red channel unless noted.
Setting [2] is: measured here: IkB-luc green channel.
[3] abbreviates: measured here: control luc red channel.

The term AC50 denotes the concentration giving half of the maximal activity seen. Consider `CC(C)OCCCn1c(=S)[nH]c2ccc(N3CCOCC3)cc2c1=O`, for which the AC50 under setting [1] is 12.6 µM [falling, partial curve].

As to `CC(C(=O)NCc1ccccc1F)n1ccc2cc(S(=O)(=O)N3CCCC3)ccc21` (centres undefined), the AC50 under setting [1] was 15.8 µM [falling, partial curve, poor fit].

In the case of `CN1CCc2nc(SCCOc3ccccc3)c(C#N)cc2C1`, the AC50 under setting [1] is 25.1 µM [falling, single point].

Take `COc1ccc(Br)cc1C(=O)Nc1nc2ccc(F)cc2s1`: the AC50 under setting [1] is 0.0631 µM [falling, full curve].

Turning to `O=C(CNc1ccccc1)Nc1ccc(F)cc1`, the AC50 under setting [1] was 1.26 µM [falling, partial curve].

For the compound `Cc1cccc(-c2c3c(=O)n(C)c(=O)n(C)c3cn2-c2ccccc2O)c1`, the AC50 under setting [1] is 10 µM [falling, partial curve].

On to `Cc1nn(Cc2ccccc2)c(C)c1NC(=O)c1cc(-c2cccs2)on1`, for which the AC50 under setting [1] was 12.6 µM [falling, partial curve].

On to `CC1CN(C(=O)Nc2ccc(C(=O)NCc3cccc(F)c3)cc2)c2ccccc2S1` (centres undefined), for which the AC50 under setting [1] is 12.6 µM [falling, partial curve].

In the case of `O=C(Nc1ccc(C(F)(F)F)cc1)C1CCCN(c2cnccn2)C1` (centres undefined), the half-maximal activity concentration (AC50) under setting [1] was 39.8 µM [falling, single point].

Consider `COc1ccc(Nc2ncc3c(n2)CCN(Cc2cc(Br)cs2)C3)c(OC)c1`, for which the AC50 under setting [1] is 31.6 µM [falling, single point].

Regarding `Cn1cnc2cc(NC(=O)c3ccc(Cl)cc3)ccc21`, the AC50 under setting [1] was 20 µM [falling, partial curve].

With `Cn1nc(-c2ccc(C(=O)Nc3ccc(F)cc3)cc2)c2ccccc2c1=O`, under setting [1], the AC50 was 39.8 µM [rising, single point] [measured here: IkB-luc green channel].

For the compound `COc1ccc2cc(-c3nc4ccc(C(=O)O)cc4[nH]3)c(=O)oc2c1`, under setting [1], the AC50 was 0.00631 µM [falling, full curve].

`C=Cc1ccc(Cn2nc(-c3ccc(C)c(S(=O)(=O)N(CC)CC)c3)ccc2=O)cc1`: the AC50 under setting [1] was 31.6 µM [falling, single point].

As to `CC(C)c1ccc(S(=O)(=O)NCc2ccc3c(c2)CCN3C(=O)c2ccccc2)cc1`, the AC50 under setting [1] was 6.31 µM [rising, single point].

As to `Brc1cc(Br)c2ncnc(N3CCCCC3)c2c1`, under setting [1], the AC50 was 25.1 µM [falling, partial curve].

Take `COc1ccc(-c2cc(C(F)(F)F)c(C#N)c(SCC(=O)Nc3ccc(F)cc3)n2)cc1`: under setting [1], the AC50 is 0.0251 µM [falling, full curve, poor fit].

Take `COCCn1c(SCc2nc3ccccc3s2)nc2ccccc21`: the AC50 under setting [1] is 15.8 µM [falling, partial curve].

For `Cc1ccc(NCc2cccn2-c2nnc(N3CCC(C(=O)NC(C)C)CC3)s2)cc1`, the AC50 under setting [1] was 15.8 µM [falling, single point].

As to `Cc1ccc(S(=O)(=O)N2CCCc3cc(NS(=O)(=O)c4ccc(F)c(C)c4)ccc32)cc1`, under setting [1], the AC50 is 39.8 µM [falling, single point].

On to `O=S(=O)(NCCOC12CC3CC(CC(C3)C1)C2)c1cccc2nsnc12`, for which, under setting [1], the AC50 is 12.6 µM [falling, partial curve].

In the case of `CCc1ccc(CNC(=O)c2ccc3c(c2)N=C(C)c2cc(C)ccc2S3)cc1`, the AC50 under setting [1] was 10 µM [falling, partial curve].

Consider `CN(C)CCNC(=O)c1ccc(-n2c(-c3ccccc3)cc3c2CCCC3)cc1`, for which the AC50 under setting [1] is 7.94 µM [falling, partial curve].

With `Cc1ccc(S(=O)(=O)C(CNC(=O)C(=O)NCc2ccc(Cl)cc2)c2cccs2)cc1` (centres undefined), the AC50 under setting [1] is 31.6 µM [falling, single point].

For `Cc1ccc(C(=O)NCCn2c(C)cc3ccccc32)cc1C`, the AC50 under setting [1] was 39.8 µM [falling, single point].

With `Cc1c(NC(=O)c2ccc(OC(C)C)cc2)cccc1-c1nc2ncccc2o1`, the AC50 under setting [1] was 31.6 µM [falling, partial curve].

Consider `Cc1ccc(S(=O)(=O)c2cn(CC(=O)Nc3ccc(C)c(Cl)c3)c3ccc(C)cc3c2=O)cc1`, for which the AC50 under setting [1] was 12.6 µM [falling, single point].

Turning to `COc1cccc(C(=O)NCCSc2c(-c3ccc(F)cc3)[nH]c3ccccc23)c1OC`, under setting [1], the AC50 is 5.01 µM [falling, partial curve].

As for `O=c1c2c(nc3nc(SCc4ccccc4)[nH]n13)CCC2`, the AC50 under setting [1] was 1.58 µM [falling, full curve].

For the compound `CCc1ccc(CNC(=O)CCSCc2ccccc2F)cc1`, under setting [1], the AC50 is 0.398 µM [falling, single point].

In the case of `Cc1ccc(-n2nc(C)c3c2OC(N)=C(C#N)C3c2cccs2)cc1` (centres undefined), under setting [1], the AC50 was 31.6 µM [falling, partial curve].

Take `Cc1cccc(NS(=O)(=O)c2ccc3[nH]c(=O)ccc3c2)c1C`: under setting [1], the AC50 was 0.2 µM [falling, full curve, poor fit].

`Cc1oc2ccc(O)c(CN(C)Cc3ccccc3)c2c1C(=O)Nc1cccc(C(F)(F)F)c1`: the AC50 under setting [1] is 7.94 µM [falling, partial curve].

Turning to `COc1ccc(C(=O)c2cn(CC(=O)Nc3ccc4c(c3)OCCO4)c3ccc(OC)cc3c2=O)cc1`, the AC50 under setting [1] is 1.58 µM [falling, full curve, poor fit].

Take `COc1cccc(C2=CC(c3ccc(OC)c(OC)c3OC)n3ncnc3N2)c1` (centres undefined): the AC50 under setting [1] is 1 µM [rising, full curve].

As to `O=C(CSc1nc(-c2ccccc2)no1)N1CCN(c2ccccc2F)CC1`, the AC50 under setting [1] is 5.01 µM [falling, partial curve].

On to `Cc1[nH]c2ccccc2c1C(c1ccccn1)N1CCC(C(N)=O)CC1` (centres undefined), for which the AC50 under setting [1] is 39.8 µM [rising, single point] [measured here: IkB-luc green channel].

As for `Cc1ccc(C(C)C)c(OCC(=O)Nc2cccc(NC(=O)c3ccco3)c2)c1`, the AC50 under setting [1] is 12.6 µM [falling, partial curve].

Take `Cc1ccc(-c2ccc(=O)n(Cc3cc(C)ccc3C)n2)cc1`: the AC50 under setting [1] was 39.8 µM [falling, single point].

`CCCc1cc(N2CCCC(C(=O)Nc3cc(Cl)ccc3OC)C2)n2ncnc2n1` (centres undefined): the AC50 under setting [1] was 31.6 µM [falling, single point].

As to `CC1=Nc2cc(C(=O)NCCc3ccc(Cl)cc3)ccc2Sc2ccc(C)cc21`, the AC50 is, setting by setting: under setting [2], 6.31 µM [rising, single point]; under setting [3], 39.8 µM [falling, partial curve, poor fit].

Regarding `COc1ccc(OC)c(NC(=O)c2cc(-c3cc(Cl)ccc3O)n[nH]2)c1`, the AC50 under setting [1] was 3.16 µM [falling, full curve, poor fit].

On to `COC(=O)C(Cc1c[nH]c2ccccc12)NC(=O)COc1ccc(Cl)cc1Cl` (centres undefined), for which the AC50 under setting [1] was 25.1 µM [falling, partial curve].

On to `CCN(c1cc(C)cc(C)c1)S(=O)(=O)c1nnc(NC(=O)c2cccs2)s1`, for which the AC50 under setting [1] is 10 µM [falling, partial curve].

For `CCOc1ccc(-n2c(CCC(=O)O)ccc2-c2ccc(Br)cc2)cc1`, the AC50 under setting [1] was 15.8 µM [falling, partial curve].

On to `COc1ccccc1CNC(=O)c1ccc(N2CCCC2)c(NC(=O)NCc2ccccc2)c1`, for which the AC50 under setting [1] was 10 µM [falling, partial curve].

Consider `CCN(CC)S(=O)(=O)c1nnc(NC(=O)COc2ccccc2Cl)s1`, for which the AC50 under setting [1] is 7.94 µM [falling, partial curve].

With `CCOc1ccc(C(=O)Nc2cccc(NC(=O)c3ccco3)c2)cc1Cl`, the half-maximal activity concentration (AC50) under setting [1] is 1.26 µM [falling, full curve].

In the case of `CCC(C(=O)N1CCN(c2ccccc2)CC1)n1nc(C)n2c(cc3sccc32)c1=O` (centres undefined), under setting [1], the AC50 is 39.8 µM [falling, single point].

Turning to `COc1ccc(C(=O)NCc2nnc(SCC(=O)Nc3ccccc3)n2-c2ccc(F)cc2)cc1`, the AC50 under setting [1] is 12.6 µM [falling, partial curve].

`CCOc1ccc(CCNC(=O)CN2C(=O)C(CC)Oc3ccccc32)cc1OCC` (centres undefined): the AC50 under setting [1] was 0.126 µM [rising, full curve].

In the case of `COc1ccc(OC)c(NC(=O)CSc2ccnc(=O)[nH]2)c1`, the AC50 under setting [1] is 501 nM [rising, full curve, poor fit] [measured here: IkB-luc green channel].

Regarding `COc1ccc(NC(=O)c2c(NCc3ccc(C)o3)sc3c2CCC(C)C3)c(OC)c1` (centres undefined), the AC50 under setting [1] is 25.1 µM [falling, single point].

Consider `Cn1c(=O)oc2cc(S(=O)(=O)CCC(=O)N3CCN(c4ccccc4)CC3)ccc21`, for which, under setting [1], the AC50 is 39.8 µM [falling, single point].

Take `COc1ccccc1-c1cc(C(=O)Nc2sc3c(c2C#N)CCCC3)no1`: the AC50 under setting [1] is 3.16 µM [falling, full curve].

As for `CC(=O)c1ccc(Oc2cc(C)nc(-n3nc(C)cc3C)n2)cc1`, the AC50 was 6.31 µM [rising, single point] under setting [2] and 1 µM [rising, single point] under setting [3].

With `COc1ccc(C2CC(c3c(O)n(C4CCCCC4)c(=O)[nH]c3=O)=Nc3ccccc3S2)cc1` (centres undefined), the AC50 under setting [1] was 31.6 µM [falling, single point].

For the compound `CCOc1cc(N2CCOCC2)c(OCC)cc1NC(=O)COc1cccc2cccnc12`, the AC50 under setting [1] is 10 µM [falling, partial curve].

For the compound `CC(C)Cn1c(=O)c2ccccc2n2c(CCC(=O)Nc3cccc(Cl)c3)nnc12`, the AC50 under setting [1] is 10 µM [falling, partial curve].

`O=C(Cc1ccccc1)Nc1nc2ccccc2[nH]1`: under setting [1], the AC50 was 12.6 µM [falling, partial curve].

As for `Cc1nc2c(c(=O)n1Cc1ccccc1Cl)c1nc3ccccc3nc1n2Cc1ccco1`, under setting [1], the AC50 is 31.6 µM [rising, single point] [measured here: IkB-luc green channel].

For the compound `CCC(CC)c1nn2c(=O)cc(COc3ccc(NC(=O)c4ccccc4Cl)cc3)nc2s1`, the concentration at half-maximal activity (AC50) under setting [1] was 7.94 µM [falling, full curve, poor fit].
